Results published in patent US20190002560A1 (Alector, published 2019).
These are yes or no findings as the source states them, for the method shown. Some binding calls cover weakened binding; strength is not graded here.

By UniProt entry, the sequences of proteins in these tests, tags left out. Where a name states a change or a piece, a line headed by the entry shows the natural chain unless it says otherwise.
UniProt P20138: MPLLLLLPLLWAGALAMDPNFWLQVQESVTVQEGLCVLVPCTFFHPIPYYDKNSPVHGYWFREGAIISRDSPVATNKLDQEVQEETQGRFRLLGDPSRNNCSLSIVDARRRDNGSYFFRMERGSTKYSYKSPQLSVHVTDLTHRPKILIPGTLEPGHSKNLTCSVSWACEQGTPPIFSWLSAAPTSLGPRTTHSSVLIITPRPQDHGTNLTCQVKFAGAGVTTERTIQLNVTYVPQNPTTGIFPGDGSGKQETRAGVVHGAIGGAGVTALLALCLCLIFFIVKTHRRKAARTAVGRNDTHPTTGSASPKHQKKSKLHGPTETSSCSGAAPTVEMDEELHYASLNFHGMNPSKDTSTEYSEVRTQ

Legend:
[1] = molecular target: T1, human CD33 (human, UniProt P20138 18-364); test: flow cytometry, human primary monocytes, 1, 0.1 or 0.01 ug/ml antibody
[2] = molecular target: T1, human CD33; test: flow cytometry on human primary dendritic cells, antibody titration
[3] = molecular target: T1, human CD33; test: flow cytometry on human primary monocytes, 1 h on ice, PE-conjugated secondary antibody, MFI

Measured: binding

B1: anti-CD33 antibody gemtuzumab (antibody, V domains shown)
VH: EVQLVQSGAEVKKPGSSVKVSCKASGYTITDSNIHWVRQAPGQSLEWIGYIYPYNGGTDYNQKFKNRATLTVDNPTNTAYMELSSLRSEDTAFYYCVNGNPWLAYWGQGTLVTVSS
VL: DIQLTQSPSTLSASVGDRVTITCRASESLDNYGIRFLTWFQQKPGKAPKLLMYAASNQGSGVPSRFSGSGSGTEFTLTISSLQPDDFATYYCQQTKEVPWSFGQGTKVEVKR
notes: Commercially available antibody
binds: all assays above
